From PubChem BioAssay (NCATS)
The shares of active, inactive and inconclusive entries below differ from those in the screen. Potencies of inconclusive entries are doubtful fits and often do not repeat. Activity calls are given as the source filed them. Calls come from the whole dose curve; as a rule, active = well fitted cell-killing curve with a large enough effect; inconclusive = small, poorly fitted or top-dose-only effect, or effect the other way; inactive = no such curve, though single readings can be large or run the other way.

Assays:
[1] = Quantitative High-Throughput drug screen in 47 multiple myeloma cell lines against the NCATS MIPE library collection: LP1_DSMZ cell viability assay (AID 1918982); settings: LP1 myeloma viability, CellTiter-Glo ATP luminescence, 48 h; series mostly up to 45.8 µM; note: nearly all actives have a fitted effect of over 35% in size
How it was run: (§1)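 ATP-based CellTiter-Glo luminescence after 48 h drug exposure (37 °C, 5% CO2) of 500 myeloma cells per well. DMSO-only wells set 100% viability, media-only wells 0%; MIPE 4.0 library added by pin tool.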

[2] = Quantitative High-Throughput drug screen in 47 multiple myeloma cell lines against the NCATS MIPE library collection: KMS28PE_JCRB cell viability assay (AID 1918983); settings: KMS28PE multiple myeloma viability, CellTiter-Glo ATP, 48 h; series mostly up to 45.8 µM; note: nearly all actives have a fitted effect of over 35% in size
How it was run: as §1

[3] = Quantitative High-Throughput drug screen in 47 multiple myeloma cell lines against the NCATS MIPE library collection: KMS34_JCRB cell viability assay (AID 1918985); settings: KMS34 myeloma viability, CellTiter-Glo ATP luminescence, 48 h; series mostly up to 45.8 µM; note: nearly all actives have a fitted effect of over 40% in size
How it was run: as §1

[4] = Quantitative High-Throughput drug screen in 47 multiple myeloma cell lines against the NCATS MIPE library collection: OCIMY7_PLB cell viability assay (AID 1918987); settings: OCI-MY7 myeloma viability, CellTiter-Glo ATP, 48 h; viability (% of DMSO): at 45.8 µM (top of the series); note: nearly all actives have a fitted effect of over 65% in size
How it was run: as §1

[5] = Quantitative High-Throughput drug screen in 47 multiple myeloma cell lines against the NCATS MIPE library collection: OCIMY5_PLB cell viability assay (AID 1918988); settings: OCI-MY5 myeloma viability, ATP luminescence, 48 h; series mostly up to 45.8 µM; note: nearly all actives have a fitted effect of over 65% in size
How it was run: as §1

[6] = Quantitative High-Throughput drug screen in 47 multiple myeloma cell lines against the NCATS MIPE library collection: OPM1_PLB cell viability assay (AID 1918989); settings: CellTiter-Glo, 48 h; series mostly up to 45.8 µM; note: nearly all actives have a fitted effect of over 40% in size
How it was run: as §1

[7] = Quantitative High-Throughput drug screen in 47 multiple myeloma cell lines against the NCATS MIPE library collection: SKMM1_PLB cell viability assay (AID 1919863); settings: SKMM1 myeloma viability, CellTiter-Glo ATP, 48 h; viability: hits give low values; note: nearly all actives have a fitted effect of over 35% in size
How it was run: as §1

[8] = Quantitative High-Throughput drug screen in 47 multiple myeloma cell lines against the NCATS MIPE library collection: U266_ATCC cell viability assay (AID 1919864); settings: U266 myeloma viability, CellTiter-Glo ATP luminescence, 48 h; viability (% of DMSO control): at 45.8 µM (top of the series); note: nearly all actives have a fitted effect of over 35% in size
How it was run: as §1

[9] = Quantitative High-Throughput drug screen in 47 multiple myeloma cell lines against the NCATS MIPE library collection: UTMC2_PLB cell viability assay (AID 1919868); settings: CellTiter-Glo ATP luminescence, 48 h; viability (% of DMSO control): at 45.8 µM (top of the series); note: nearly all actives have a fitted effect of over 55% in size
How it was run: as §1

[10] = Quantitative High-Throughput drug screen in 47 multiple myeloma cell lines against the NCATS MIPE library collection: PCM6_Riken cell viability assay (AID 1919870); settings: CellTiter-Glo ATP, 48 h; series mostly up to 45.8 µM; note: nearly all actives have a fitted effect of over 30% in size
How it was run: as §1

[11] = Quantitative High-Throughput drug screen in 47 multiple myeloma cell lines against the NCATS MIPE library collection: XG1_PLB cell viability assay (AID 1919866); settings: CellTiter-Glo ATP, 48 h; viability: at 45.8 µM (top of the series); note: nearly all actives have a fitted effect of over 35% in size
How it was run: as §1

[12] = Quantitative High-Throughput drug screen in 47 multiple myeloma cell lines against the NCATS MIPE library collection: KMS11_JCRBsus cell viability assay (AID 1919873); settings: KMS11 myeloma viability, CellTiter-Glo ATP luminescence, 48 h; series mostly up to 45.8 µM; note: nearly all actives have a fitted effect of over 50% in size
How it was run: as §1

[13] = Quantitative High-Throughput drug screen in 47 multiple myeloma cell lines against the NCATS MIPE library collection: KMS28BM_JCRB cell viability assay (AID 1919874); settings: CellTiter-Glo ATP, 48 h; series mostly up to 45.8 µM; note: nearly all actives have a fitted effect of over 35% in size
How it was run: as §1

[14] = Quantitative High-Throughput drug screen in 47 multiple myeloma cell lines against the NCATS MIPE library collection: PE2_PLB cell viability assay (AID 1919869); settings: PE2_PLB myeloma cells viability, ATP luminescence, 48 h; viability (% of control): at 45.8 µM (top of the series); note: nearly all actives have a fitted effect of over 35% in size
How it was run: as §1

[15] = Quantitative High-Throughput drug screen in 47 multiple myeloma cell lines against the NCATS MIPE library collection: RPMI8226_ATCC cell viability assay (AID 1919871); settings: RPMI8226 myeloma viability, CellTiter-Glo ATP luminescence, 48 h; viability (% of control): at 45.8 µM (top of the series); note: nearly all actives have a fitted effect of over 30% in size
How it was run: as §1

[16] = Quantitative High-Throughput drug screen in 47 multiple myeloma cell lines against the NCATS MIPE library collection: L363_DSMZ cell viability assay (AID 1918984); settings: L363 myeloma viability, CellTiter-Glo ATP luminescence, 48 h; viability (% of control): at 45.8 µM (top of the series); note: nearly all actives have a fitted effect of over 40% in size
How it was run: as §1

[17] = Quantitative High-Throughput drug screen in 47 multiple myeloma cell lines against the NCATS MIPE library collection: XG6_PLB cell viability assay (AID 1919865); settings: XG6 myeloma viability, CellTiter-Glo ATP luminescence, 48 h; viability (% of control): at 45.8 µM (top of the series); note: nearly all actives have a fitted effect of over 40% in size
How it was run: as §1

[18] = Quantitative High-Throughput drug screen in 47 multiple myeloma cell lines against the NCATS MIPE library collection: VP6_DJ cell viability assay (AID 1919867); settings: ATP luminescence, 48 h; viability (% of DMSO): at 45.8 µM (top of the series); note: nearly all actives have a fitted effect of over 40% in size
How it was run: as §1

[19] = Quantitative High-Throughput drug screen in 47 multiple myeloma cell lines against the NCATS MIPE library collection: OPM2_DSMZ cell viability assay (AID 1919872); settings: OPM2 myeloma viability, CellTiter-Glo ATP luminescence, 48 h; series mostly up to 45.8 µM; note: nearly all actives have a fitted effect of over 30% in size
How it was run: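 Inhibition of cell viability is measured here. Each line was plated at 500 cells per well, treated with MIPE 4.0 drugs, kept 48 hours at 37C, then assayed for ATP content by CellTiter-Glo luminescence.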
Potency is the fitted concentration of half-maximal effect.

CN(C)[C@@H]1C(=O)C(C(N)=O)=C(O)[C@@]2(O)C(=O)C3=C(O)c4c(O)cccc4[C@@](C)(O)[C@H]3C[C@@H]12
inactive: Potency [8] | Potency [10]
inconclusive: Potency [1] 23.5 µM [cytotoxic, single point] | Potency [2] 14800 nM [cytotoxic, partial curve, poor fit] | Potency [3] 74.3 µM [rising, single point] | Potency [4] 37.2 µM [cytotoxic, partial curve, poor fit] | Potency [5] 16.6 µM [cytotoxic, partial curve, poor fit] | Potency [6] 0.001 µM | Potency [7] 0.0662 µM [cytotoxic, full curve, poor fit] | Potency [9] 10.5 µM [cytotoxic, partial curve, poor fit]

CN1[C@H]2CC(O)C[C@H]1[C@H]1O[C@H]12 (stereo partly drawn)
inconclusive: Potency [9] 13.2 µM [cytotoxic, partial curve, poor fit] | Potency [12] 3.32 µM [cytotoxic, full curve, poor fit] | Potency [13] 3.72 µM [cytotoxic, full curve, poor fit]
active: Potency [1] 18.7 µM | Potency [2] 20900 nM | Potency [4] 3.32 µM | Potency [5] 18.7 µM | Potency [11] 9.35 µM | Potency [10] 11.8 µM

O=C(N[C@@H](COc1ccc2[nH]c(=O)[nH]c2c1)c1ccccc1)c1cccn(Cc2ccc(F)c(F)c2)c1=O
inactive: Potency [3]
inconclusive: Potency [1] 20.9 µM [cytotoxic, partial curve] | Potency [2] 11.8 nM [rising, full curve] | Potency [4] 16.6 µM [cytotoxic, partial curve, poor fit] | Potency [5] 20.9 µM [cytotoxic, single point] | Potency [6] 26.4 µM [cytotoxic, single point] | Potency [8] 16.6 µM [cytotoxic, partial curve, poor fit] | Potency [9] 3.32 µM [cytotoxic, partial curve, poor fit] | Potency [14] 18.7 µM [cytotoxic, partial curve] | Potency [10] 18.7 µM [cytotoxic, partial curve] | Potency [15] 33200 nM [cytotoxic, single point] | Potency [12] 10.5 µM [cytotoxic, partial curve] | Potency [13] 20.9 µM [cytotoxic, partial curve]

CC(=O)OCC1=C(C(=O)O)N2C(=O)[C@@H](N)[C@@H]2SC1
inconclusive: Potency [1] 0.001 µM | Potency [16] 10500 nM [cytotoxic, partial curve, poor fit] | Potency [3] 0.0015 µM [rising, full curve, poor fit] | Potency [4] 14.8 µM [cytotoxic, partial curve, poor fit] | Potency [5] 0.0047 µM [rising, full curve, poor fit] | Potency [15] 52.6 nM [rising, full curve, poor fit]
inactive: viability [7] 121% | Potency [8] | Potency [17] | Potency [11] | Potency [18] | Potency [9] | Potency [13]

O=C(Oc1ccc([N+](=O)[O-])cc1)N1CCC(C(O)(c2ccc3c(c2)OCO3)c2ccc3c(c2)OCO3)CC1
inconclusive: Potency [16] 16600 nM [cytotoxic, partial curve, poor fit] | Potency [4] 0.0132 µM [cytotoxic, full curve, poor fit] | Potency [6] 37.2 µM [cytotoxic, single point] | Potency [8] 13.2 µM [cytotoxic, partial curve, poor fit] | Potency [11] 16.6 µM [cytotoxic, partial curve, poor fit] | Potency [9] 0.0012 µM [cytotoxic, full curve, poor fit] | Potency [10] 16.6 µM [cytotoxic, single point] | Potency [15] 41.8 nM [rising, full curve, poor fit]
inactive: Potency [1] | Potency [3] | Potency [5] | Potency [18] | Potency [12] | Potency [13]

CC(C)c1cccc(C(C)C)c1O
inactive: Potency [1] | Potency [3] | viability [7] 119% | Potency [8] | Potency [17] | Potency [18] | Potency [9] | Potency [14] | Potency [10] | Potency [12] | Potency [13]
inconclusive: Potency [16] 3.7 nM [cytotoxic, full curve, poor fit] | Potency [4] 6.62 µM [cytotoxic, partial curve, poor fit] | Potency [5] 9.35 µM [cytotoxic, full curve, poor fit]

C=CCON=C(C[C@H]1O[C@@H]2O[C@]3(C)CC[C@@H]4[C@H](C)CC[C@@H]([C@H]1C)[C@@]24OO3)[C@H]1O[C@@H]2O[C@]3(C)CC[C@H]4[C@H](C)CC[C@@H]([C@@H]1C)[C@@]24OO3
active: Potency [2] 264 nM | Potency [5] 0.187 µM | Potency [15] 235 nM | Potency [12] 0.187 µM
inconclusive: Potency [1] 0.0662 µM [cytotoxic, full curve] | Potency [16] 118 nM [cytotoxic, full curve, poor fit] | Potency [19] 166 nM [cytotoxic, full curve]

CC(C)(C)c1cc(C=C(C#N)C#N)cc(Br)c1O
active: Potency [1] 23.5 µM | Potency [4] 4.69 µM | Potency [6] 9.35 µM | Potency [8] 26.4 µM | Potency [18] 11.8 µM
inconclusive: Potency [16] 26400 nM [cytotoxic, single point] | Potency [3] 29.6 µM [cytotoxic, partial curve, poor fit] | Potency [5] 37.2 µM [cytotoxic, single point] | Potency [7] 37.2 µM [cytotoxic, single point] | Potency [9] 10.5 µM [cytotoxic, partial curve, poor fit] | Potency [15] 29600 nM [cytotoxic, single point] | Potency [19] 26400 nM [cytotoxic, single point] | Potency [12] 33.2 µM [cytotoxic, single point] | Potency [13] 37.2 µM [cytotoxic, single point]

CN1C(=O)CCS(=O)(=O)C1c1ccc(Cl)cc1 (stereo not drawn)
inconclusive: Potency [9] 3.72 µM [rising, full curve, poor fit] | Potency [12] 11.8 µM [cytotoxic, single point]
inactive: Potency [1] | Potency [2] | Potency [3] | Potency [4] | Potency [5] | Potency [6] | viability [7] 109% | Potency [8] | Potency [18] | Potency [10]

O=C(Nc1ccncc1)C(=O)c1cn(Cc2ccc(Cl)cc2)c2ccccc12
active: Potency [1] 0.0935 µM | Potency [5] 0.0372 µM | Potency [10] 0.0059 µM | Potency [12] 0.0053 µM
inactive: Potency [8]
inconclusive: Potency [2] 33.2 nM [cytotoxic, full curve, poor fit] | Potency [17] 7.4 nM [cytotoxic, full curve] | Potency [14] 0.0118 µM [cytotoxic, full curve]

Cc1ccccc1-n1c(Cn2cnc3c(N)ncnc32)nc2cccc(C)c2c1=O
inconclusive: Potency [1] 0.0526 µM [cytotoxic, full curve] | Potency [16] 52.6 nM [cytotoxic, full curve] | Potency [8] 6.62 µM [cytotoxic, partial curve] | Potency [15] 46.9 nM [cytotoxic, full curve] | Potency [12] 0.296 µM [cytotoxic, full curve]
active: Potency [2] 296 nM | Potency [9] 0.0662 µM | Potency [10] 1.66 µM

CC(C)C[C@H](CN)CC(=O)O
inactive: Potency [1] | Potency [3] | Potency [11] | Potency [19]
inconclusive: viability (% of control) [16] 89.3% [cytotoxic] | Potency [4] 18.7 µM [cytotoxic, partial curve, poor fit] | Potency [5] 11.8 µM [cytotoxic, partial curve, poor fit] | Potency [7] 23.5 µM [cytotoxic, single point] | Potency [8] 14.8 µM [cytotoxic, partial curve, poor fit] | Potency [18] 0.0053 µM [rising, full curve, poor fit] | Potency [9] 1.18 µM [cytotoxic, full curve, poor fit] | Potency [10] 33.2 µM [cytotoxic, single point]

Quoted at random: 2 compounds from above.
Cc1ccccc1-n1c(Cn2cnc3c(N)ncnc32)nc2cccc(C)c2c1=O
inconclusive: Potency [1] 0.0526 µM [cytotoxic, full curve] | Potency [16] 52.6 nM [cytotoxic, full curve] | Potency [8] 6.62 µM [cytotoxic, partial curve] | Potency [15] 46.9 nM [cytotoxic, full curve] | Potency [12] 0.296 µM [cytotoxic, full curve]
active: Potency [2] 296 nM | Potency [9] 0.0662 µM | Potency [10] 1.66 µM

CN1C(=O)CCS(=O)(=O)C1c1ccc(Cl)cc1 (stereo not drawn)
inconclusive: Potency [9] 3.72 µM [rising, full curve, poor fit] | Potency [12] 11.8 µM [cytotoxic, single point]
inactive: Potency [1] | Potency [2] | Potency [3] | Potency [4] | Potency [5] | Potency [6] | viability [7] 109% | Potency [8] | Potency [18] | Potency [10]

Later entries

CC=C(C)C(=O)N[C@@H](c1ccccc1)[C@@H](O)C(=O)O[C@H]1C[C@@]2(O)[C@@H](OC(=O)c3ccccc3)[C@@H]3[C@]4(OC(C)=O)CO[C@@H]4C[C@H](O)[C@@]3(C)C(=O)[C@H](OC(C)=O)C(=C1C)C2(C)C
inactive: Potency [1] | Potency [3] | Potency [5] | viability [7] 60.8% | Potency [11] | Potency [9] | Potency [10] | Potency [12]
inconclusive: Potency [16] 1.3 nM [cytotoxic, full curve] | Potency [4] 0.0059 µM [cytotoxic, full curve] | Potency [6] 0.0026 µM [cytotoxic, full curve] | Potency [8] 0.0019 µM [rising, full curve, poor fit] | Potency [19] 1.5 nM [cytotoxic, full curve] | Potency [13] 2.09 µM [rising, partial curve, poor fit]
